Earlier results, collected in patent publication US20160128340A1, “Pest control formulation composed of Beauveria bassiana, Cold Pressed Neem Oil and Refined Pyrethrum Extract, and methods of making and using same” (priority 2014, published 2016).
At least one compound was matched to its structure with a doubt left.

System: Bemisia tabaci
Conditions: Bemisia tabaci population collected in a floriculture greenhouse

SMILES: O=S1OCC2C(CO1)C1(Cl)C(Cl)=C(Cl)C2(Cl)C1(Cl)Cl (stereo not shown) [endosulfan]
- resistance factor at LC50: 58 fold
